No constants are given. Whether binding was seen depends on the method and setting. Some results given as binding are weak or reduced against the parent protein; the word gives no strength. Where a sequence is shown, tags or fusion partners need not be part of it.
T1: BMP9 (UniProt Q9UK05)
T1 sequence (looked up): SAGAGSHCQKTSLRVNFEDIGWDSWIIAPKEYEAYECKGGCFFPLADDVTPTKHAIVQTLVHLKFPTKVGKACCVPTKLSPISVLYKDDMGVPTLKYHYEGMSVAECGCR

The chains behind the UniProt entries cited, without tags or fusion partners. Residues count along the entry.
UniProt O14793, residues 267-375: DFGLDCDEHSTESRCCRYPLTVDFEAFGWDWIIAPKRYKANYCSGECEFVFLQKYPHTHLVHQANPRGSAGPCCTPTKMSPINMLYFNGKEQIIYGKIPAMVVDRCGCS
UniProt P22004, residues 382-513: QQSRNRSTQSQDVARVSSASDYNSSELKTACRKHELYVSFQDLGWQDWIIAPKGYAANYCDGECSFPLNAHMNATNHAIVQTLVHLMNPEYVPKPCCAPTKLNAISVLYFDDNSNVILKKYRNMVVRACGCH
UniProt O95390, residues 299-407: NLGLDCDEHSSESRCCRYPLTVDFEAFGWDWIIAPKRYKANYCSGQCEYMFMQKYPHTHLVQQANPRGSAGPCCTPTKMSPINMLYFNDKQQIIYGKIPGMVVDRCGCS
UniProt P22003, residues 317-454: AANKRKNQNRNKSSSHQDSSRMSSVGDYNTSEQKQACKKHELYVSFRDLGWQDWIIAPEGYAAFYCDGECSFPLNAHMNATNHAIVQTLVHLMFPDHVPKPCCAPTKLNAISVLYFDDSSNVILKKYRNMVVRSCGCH

T2: BMP10 (UniProt O95393)
T2 sequence (looked up): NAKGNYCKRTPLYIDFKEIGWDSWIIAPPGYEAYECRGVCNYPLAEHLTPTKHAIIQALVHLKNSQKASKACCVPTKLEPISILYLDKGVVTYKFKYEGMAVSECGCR

T3: Activin B (UniProt P09529)
T3 sequence (looked up): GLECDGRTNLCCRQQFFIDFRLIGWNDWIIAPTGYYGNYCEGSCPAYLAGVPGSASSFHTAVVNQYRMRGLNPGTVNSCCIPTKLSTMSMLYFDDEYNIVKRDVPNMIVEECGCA

T4: GDF3 (UniProt Q9NR23)
T4 sequence (looked up): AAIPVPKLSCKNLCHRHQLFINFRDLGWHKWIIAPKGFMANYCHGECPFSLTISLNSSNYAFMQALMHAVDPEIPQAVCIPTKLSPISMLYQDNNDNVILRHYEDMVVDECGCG

T5: GDF5 (UniProt P43026)
T5 sequence (looked up): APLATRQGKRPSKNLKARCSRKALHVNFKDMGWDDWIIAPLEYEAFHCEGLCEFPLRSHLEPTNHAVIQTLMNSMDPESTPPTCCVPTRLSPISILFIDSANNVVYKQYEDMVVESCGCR

T6: GDF7 (UniProt Q7Z4P5)
T6 sequence (looked up): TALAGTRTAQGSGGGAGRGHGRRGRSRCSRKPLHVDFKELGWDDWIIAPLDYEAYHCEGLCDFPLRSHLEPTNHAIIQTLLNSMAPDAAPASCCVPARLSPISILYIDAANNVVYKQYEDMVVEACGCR

T7: GDF6 (UniProt Q6KF10)
T7 sequence (looked up): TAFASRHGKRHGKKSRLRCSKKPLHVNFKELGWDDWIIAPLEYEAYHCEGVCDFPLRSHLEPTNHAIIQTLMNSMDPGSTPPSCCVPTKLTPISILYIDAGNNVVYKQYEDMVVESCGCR


How the values were obtained:
GDF8 [1] = molecular target: GDF8 (UniProt O14793); experiment: SPR (Biacore), figure legend
BMP6 [2] = molecular target: BMP6 (UniProt P22004); experiment: SPR (Biacore), figure legend
BMP9 [3] = molecular target: T1, BMP9; experiment: SPR (Biacore), figure legend
BMP10 [4] = molecular target: T2, BMP10; experiment: SPR (Biacore), figure legend
Activin B [5] = molecular target: T3, Activin B; experiment: SPR (Biacore), figure legend
GDF3 [6] = molecular target: T4, GDF3; experiment: SPR (Biacore), figure legend
GDF11 [7] = molecular target: GDF11 (UniProt O95390); experiment: SPR (Biacore), figure legend
BMP5 [8] = molecular target: BMP5 (UniProt P22003); experiment: SPR (Biacore), figure legend
GDF8 [9] = molecular target: GDF8 (UniProt O14793); experiment: SPR (Biacore)
BMP6 [10] = molecular target: BMP6 (UniProt P22004); experiment: SPR (Biacore)
BMP9 [11] = molecular target: T1, BMP9; experiment: SPR (Biacore)
BMP10 [12] = molecular target: T2, BMP10; experiment: SPR (Biacore)
Activin B [13] = molecular target: T3, Activin B; experiment: SPR (Biacore)
GDF3 [14] = molecular target: T4, GDF3; experiment: SPR (Biacore)
GDF11 [15] = molecular target: GDF11 (UniProt O95390); experiment: SPR (Biacore)
BMP5 [16] = molecular target: BMP5 (UniProt P22003); experiment: SPR (Biacore)
GDF5 = molecular target: T5, GDF5; experiment: SPR (Biacore), anti-Fc capture
GDF7 = molecular target: T6, GDF7; experiment: SPR (Biacore), anti-Fc capture
BMP6 [17] = molecular target: BMP6 (UniProt P22004); experiment: SPR (Biacore), anti-Fc capture
GDF6 = molecular target: T7, GDF6; experiment: SPR (Biacore), anti-Fc capture

binding (GDF8 [1]) | binding (BMP6 [2]) | binding (BMP9 [3]) | binding (BMP10 [4]) | binding (Activin B [5]) | binding (GDF3 [6]) | binding (GDF11 [7]) | binding (BMP5 [8]) | binding (GDF8 [9]) | binding (BMP6 [10]) | binding (BMP9 [11]) | binding (BMP10 [12]) | binding (Activin B [13]) | binding (GDF3 [14]) | binding (GDF11 [15]) | binding (BMP5 [16]) | binding (GDF5) | binding (GDF7) | binding (BMP6 [17]) | binding (GDF6) | Binder
binds | binds | binds | binds | binds | binds | binds | binds | binds | binds | binds | binds | binds | binds | binds | binds | binds | binds | – | – | ActRIIB-Fc homodimer (Fc fusion, human, UniProt Q13705 19-137, looked up, not shown: a dimerising Fc or GST) SGRGEAETRECIYYNANWELERTNQSGLERCEGEQDKRLHCYASWRNSSGTIELVKKGCWLDDFNCYDRQECVATEENPQVYFCCCEGNFCNERFTHLPEAGGPEVTYEPPPTAPTLLT
– | – | – | – | – | – | – | – | – | – | – | – | – | – | – | – | – | – | binds | binds | BMPRII-Fc homodimer (Fc fusion, human, UniProt Q13873 27-150, looked up, not shown: a dimerising Fc or GST) SQNQERLCAFKDPYQQDLGIGESRISHENGTILCSKGSTCYGLWEKSKGDINLVKQGCWSHIGDPQECHYEECVVTTTPPSIQNGTYRFCCCSTDLCNVNFTENFPPPDTTPLSPPHSFNRDET

Reference: patent US20210147508A1
